Results: the supplement of paper PMC12595434, “Development of retinoid nuclear receptor pathway antagonists through targeting aldehyde dehydrogenase 1A3” (iScience, 2025)
The other results are listed elsewhere or left out. This is a noisy data set.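 Many melting curves are irregular; where none melted, Tm was taken as 64 °C.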

Protein sequences, listed by entry. Tags and fused reporters are not part of them. Lines headed by an entry give the natural chain unless they say otherwise; changes in a name come on top.
UniProt P55769: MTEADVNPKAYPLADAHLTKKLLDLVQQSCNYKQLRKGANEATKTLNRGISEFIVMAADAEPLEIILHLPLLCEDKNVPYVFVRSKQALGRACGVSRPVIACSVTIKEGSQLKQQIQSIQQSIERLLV
UniProt P52895: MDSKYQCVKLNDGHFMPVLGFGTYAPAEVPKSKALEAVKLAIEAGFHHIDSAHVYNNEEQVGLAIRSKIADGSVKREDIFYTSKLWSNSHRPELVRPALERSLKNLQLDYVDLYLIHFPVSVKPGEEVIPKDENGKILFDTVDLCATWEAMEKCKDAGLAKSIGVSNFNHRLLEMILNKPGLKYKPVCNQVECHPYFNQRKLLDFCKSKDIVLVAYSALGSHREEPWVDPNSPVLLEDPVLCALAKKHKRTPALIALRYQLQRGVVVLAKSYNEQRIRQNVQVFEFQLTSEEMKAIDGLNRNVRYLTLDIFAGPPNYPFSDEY
UniProt P53634: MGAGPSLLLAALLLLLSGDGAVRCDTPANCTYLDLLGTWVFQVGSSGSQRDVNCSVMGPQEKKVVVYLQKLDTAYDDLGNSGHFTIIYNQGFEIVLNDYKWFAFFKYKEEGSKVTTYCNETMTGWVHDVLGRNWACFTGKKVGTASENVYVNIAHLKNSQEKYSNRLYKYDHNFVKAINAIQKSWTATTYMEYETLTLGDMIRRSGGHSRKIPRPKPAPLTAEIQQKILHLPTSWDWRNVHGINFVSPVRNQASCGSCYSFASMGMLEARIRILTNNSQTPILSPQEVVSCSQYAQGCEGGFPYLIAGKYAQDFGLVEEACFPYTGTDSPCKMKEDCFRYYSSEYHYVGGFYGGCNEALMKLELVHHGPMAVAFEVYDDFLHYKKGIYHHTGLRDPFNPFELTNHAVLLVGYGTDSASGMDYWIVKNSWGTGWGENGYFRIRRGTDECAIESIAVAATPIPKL
UniProt P61599, whole entry: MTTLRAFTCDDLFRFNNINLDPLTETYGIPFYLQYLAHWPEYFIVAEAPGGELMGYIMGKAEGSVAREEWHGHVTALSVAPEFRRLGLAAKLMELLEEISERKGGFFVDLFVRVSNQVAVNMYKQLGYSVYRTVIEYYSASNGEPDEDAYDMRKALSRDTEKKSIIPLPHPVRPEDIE
UniProt P57076: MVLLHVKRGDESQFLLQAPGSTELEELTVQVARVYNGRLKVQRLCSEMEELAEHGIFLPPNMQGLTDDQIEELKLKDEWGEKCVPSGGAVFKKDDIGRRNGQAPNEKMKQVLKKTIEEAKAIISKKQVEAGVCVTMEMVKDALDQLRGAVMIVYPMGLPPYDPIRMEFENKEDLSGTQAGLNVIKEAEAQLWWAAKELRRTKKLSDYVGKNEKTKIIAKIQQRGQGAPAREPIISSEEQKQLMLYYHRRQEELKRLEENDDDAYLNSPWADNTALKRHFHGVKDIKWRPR
UniProt P61960, whole entry: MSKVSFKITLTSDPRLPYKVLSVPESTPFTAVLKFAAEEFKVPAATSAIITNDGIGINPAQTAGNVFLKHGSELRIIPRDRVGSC
UniProt P68104, whole entry: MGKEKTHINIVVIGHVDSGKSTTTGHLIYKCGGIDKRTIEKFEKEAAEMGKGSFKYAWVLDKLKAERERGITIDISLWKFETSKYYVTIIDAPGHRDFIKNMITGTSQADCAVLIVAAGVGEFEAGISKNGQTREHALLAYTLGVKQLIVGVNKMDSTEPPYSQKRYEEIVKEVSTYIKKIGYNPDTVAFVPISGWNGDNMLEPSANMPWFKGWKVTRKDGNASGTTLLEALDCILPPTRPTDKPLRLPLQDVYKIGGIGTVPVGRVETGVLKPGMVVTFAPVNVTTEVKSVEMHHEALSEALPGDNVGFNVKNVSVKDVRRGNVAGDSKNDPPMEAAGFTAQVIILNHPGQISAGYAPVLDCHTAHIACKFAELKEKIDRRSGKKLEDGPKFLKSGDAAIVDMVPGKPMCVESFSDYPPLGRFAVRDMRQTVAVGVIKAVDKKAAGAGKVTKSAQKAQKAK
UniProt P53621: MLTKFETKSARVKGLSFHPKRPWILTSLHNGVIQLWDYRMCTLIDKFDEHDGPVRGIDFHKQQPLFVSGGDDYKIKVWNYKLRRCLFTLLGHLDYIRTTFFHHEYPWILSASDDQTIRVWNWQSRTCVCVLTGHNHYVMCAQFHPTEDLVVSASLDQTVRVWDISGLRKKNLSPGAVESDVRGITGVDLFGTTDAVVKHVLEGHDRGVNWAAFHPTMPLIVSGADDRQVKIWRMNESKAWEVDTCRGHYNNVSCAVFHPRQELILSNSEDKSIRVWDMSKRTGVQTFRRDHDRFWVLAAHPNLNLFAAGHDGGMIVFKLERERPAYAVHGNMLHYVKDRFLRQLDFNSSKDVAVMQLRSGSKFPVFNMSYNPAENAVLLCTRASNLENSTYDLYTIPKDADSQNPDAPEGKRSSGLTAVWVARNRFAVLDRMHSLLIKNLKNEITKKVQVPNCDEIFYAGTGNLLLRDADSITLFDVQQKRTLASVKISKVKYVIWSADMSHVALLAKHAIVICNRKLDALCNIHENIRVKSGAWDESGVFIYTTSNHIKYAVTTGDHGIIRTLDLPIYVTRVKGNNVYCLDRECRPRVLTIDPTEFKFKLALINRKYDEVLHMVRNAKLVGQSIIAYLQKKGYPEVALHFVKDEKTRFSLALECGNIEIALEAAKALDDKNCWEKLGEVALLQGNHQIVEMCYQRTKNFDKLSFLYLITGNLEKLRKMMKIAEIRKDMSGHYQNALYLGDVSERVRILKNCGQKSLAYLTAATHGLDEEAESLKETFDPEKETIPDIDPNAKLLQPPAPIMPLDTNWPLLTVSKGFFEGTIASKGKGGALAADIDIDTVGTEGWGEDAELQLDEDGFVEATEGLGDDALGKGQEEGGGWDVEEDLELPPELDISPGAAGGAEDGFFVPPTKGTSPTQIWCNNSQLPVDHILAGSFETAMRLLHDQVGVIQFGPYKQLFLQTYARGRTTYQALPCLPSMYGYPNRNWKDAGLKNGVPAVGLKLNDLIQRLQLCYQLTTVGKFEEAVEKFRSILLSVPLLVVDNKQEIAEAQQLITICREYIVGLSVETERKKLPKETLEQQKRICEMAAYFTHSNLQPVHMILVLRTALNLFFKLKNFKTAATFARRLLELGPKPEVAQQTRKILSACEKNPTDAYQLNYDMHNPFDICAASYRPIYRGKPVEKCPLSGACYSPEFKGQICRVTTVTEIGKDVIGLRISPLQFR
UniProt P62873, whole entry: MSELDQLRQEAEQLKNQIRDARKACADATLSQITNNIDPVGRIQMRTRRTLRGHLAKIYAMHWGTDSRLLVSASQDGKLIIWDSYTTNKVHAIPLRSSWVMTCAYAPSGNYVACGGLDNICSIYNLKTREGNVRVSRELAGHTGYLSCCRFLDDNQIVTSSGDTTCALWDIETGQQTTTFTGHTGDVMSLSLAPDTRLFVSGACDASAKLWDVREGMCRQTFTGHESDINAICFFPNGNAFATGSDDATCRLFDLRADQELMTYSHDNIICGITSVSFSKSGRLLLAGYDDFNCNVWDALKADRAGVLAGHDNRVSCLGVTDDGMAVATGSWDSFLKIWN
UniProt P56182: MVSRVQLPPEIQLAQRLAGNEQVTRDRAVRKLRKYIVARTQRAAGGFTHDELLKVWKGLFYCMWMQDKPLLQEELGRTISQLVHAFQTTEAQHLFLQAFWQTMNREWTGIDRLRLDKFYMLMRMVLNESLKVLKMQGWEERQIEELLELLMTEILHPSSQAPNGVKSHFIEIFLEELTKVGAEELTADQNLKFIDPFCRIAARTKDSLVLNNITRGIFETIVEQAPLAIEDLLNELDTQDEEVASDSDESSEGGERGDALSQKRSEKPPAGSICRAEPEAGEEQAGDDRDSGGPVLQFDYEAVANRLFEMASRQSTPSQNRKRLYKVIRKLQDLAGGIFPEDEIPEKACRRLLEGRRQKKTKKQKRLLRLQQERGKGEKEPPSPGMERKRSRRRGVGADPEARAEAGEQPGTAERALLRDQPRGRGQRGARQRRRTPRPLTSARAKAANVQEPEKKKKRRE
UniProt P55290: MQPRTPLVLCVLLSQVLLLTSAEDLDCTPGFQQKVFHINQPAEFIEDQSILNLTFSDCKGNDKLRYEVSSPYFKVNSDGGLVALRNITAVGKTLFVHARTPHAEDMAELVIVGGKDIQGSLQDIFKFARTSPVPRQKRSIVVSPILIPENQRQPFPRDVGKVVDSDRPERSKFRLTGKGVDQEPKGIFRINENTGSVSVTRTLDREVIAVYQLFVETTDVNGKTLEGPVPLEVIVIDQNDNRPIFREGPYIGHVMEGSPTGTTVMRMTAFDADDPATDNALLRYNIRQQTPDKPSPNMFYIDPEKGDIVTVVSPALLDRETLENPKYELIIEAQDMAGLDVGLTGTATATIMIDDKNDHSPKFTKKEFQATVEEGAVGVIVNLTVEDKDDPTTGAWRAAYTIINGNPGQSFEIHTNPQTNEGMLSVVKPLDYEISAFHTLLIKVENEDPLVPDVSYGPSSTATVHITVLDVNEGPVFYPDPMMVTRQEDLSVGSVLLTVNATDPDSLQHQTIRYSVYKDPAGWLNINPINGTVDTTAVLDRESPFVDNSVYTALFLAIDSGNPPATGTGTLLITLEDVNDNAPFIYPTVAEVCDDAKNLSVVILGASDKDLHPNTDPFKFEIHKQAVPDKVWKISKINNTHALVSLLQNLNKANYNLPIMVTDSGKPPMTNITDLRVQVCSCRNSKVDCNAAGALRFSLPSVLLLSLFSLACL
UniProt P60033: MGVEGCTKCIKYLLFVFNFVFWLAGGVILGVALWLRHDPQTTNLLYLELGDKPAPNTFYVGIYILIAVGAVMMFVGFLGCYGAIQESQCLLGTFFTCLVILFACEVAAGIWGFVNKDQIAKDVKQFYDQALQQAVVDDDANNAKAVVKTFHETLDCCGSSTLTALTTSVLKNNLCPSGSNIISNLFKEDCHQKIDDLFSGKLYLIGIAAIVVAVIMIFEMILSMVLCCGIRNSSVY
UniProt P61106, whole entry, looked up: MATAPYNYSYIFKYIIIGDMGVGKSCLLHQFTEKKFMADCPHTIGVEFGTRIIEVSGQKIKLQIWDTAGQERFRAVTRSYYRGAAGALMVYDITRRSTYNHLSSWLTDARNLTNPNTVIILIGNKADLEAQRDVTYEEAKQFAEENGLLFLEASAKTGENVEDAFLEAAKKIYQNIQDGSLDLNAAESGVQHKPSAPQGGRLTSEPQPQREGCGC
UniProt P61764, whole entry: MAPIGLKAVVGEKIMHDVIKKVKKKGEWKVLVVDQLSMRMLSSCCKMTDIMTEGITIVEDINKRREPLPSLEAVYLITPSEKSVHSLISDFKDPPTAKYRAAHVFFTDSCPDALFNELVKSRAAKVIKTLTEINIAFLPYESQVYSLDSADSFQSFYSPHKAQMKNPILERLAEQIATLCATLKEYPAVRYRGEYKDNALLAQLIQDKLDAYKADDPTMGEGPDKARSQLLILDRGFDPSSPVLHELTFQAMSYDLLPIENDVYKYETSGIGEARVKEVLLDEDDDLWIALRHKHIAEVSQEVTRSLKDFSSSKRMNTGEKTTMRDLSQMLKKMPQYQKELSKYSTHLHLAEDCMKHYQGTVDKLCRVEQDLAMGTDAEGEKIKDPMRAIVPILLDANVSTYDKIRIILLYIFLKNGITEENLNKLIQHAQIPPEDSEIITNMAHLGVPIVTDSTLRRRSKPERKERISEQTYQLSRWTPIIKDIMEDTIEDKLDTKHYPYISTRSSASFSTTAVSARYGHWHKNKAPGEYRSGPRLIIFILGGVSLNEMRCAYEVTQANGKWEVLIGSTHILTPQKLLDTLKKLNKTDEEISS
UniProt P62942, whole entry: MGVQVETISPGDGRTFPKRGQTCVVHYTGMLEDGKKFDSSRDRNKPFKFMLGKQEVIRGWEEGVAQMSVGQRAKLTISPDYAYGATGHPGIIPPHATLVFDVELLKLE
UniProt P61019: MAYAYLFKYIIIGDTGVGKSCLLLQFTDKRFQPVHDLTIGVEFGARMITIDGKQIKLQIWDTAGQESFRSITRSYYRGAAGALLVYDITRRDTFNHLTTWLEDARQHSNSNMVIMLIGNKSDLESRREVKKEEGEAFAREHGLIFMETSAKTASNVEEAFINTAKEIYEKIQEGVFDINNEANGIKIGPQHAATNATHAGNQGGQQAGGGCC
UniProt P57081: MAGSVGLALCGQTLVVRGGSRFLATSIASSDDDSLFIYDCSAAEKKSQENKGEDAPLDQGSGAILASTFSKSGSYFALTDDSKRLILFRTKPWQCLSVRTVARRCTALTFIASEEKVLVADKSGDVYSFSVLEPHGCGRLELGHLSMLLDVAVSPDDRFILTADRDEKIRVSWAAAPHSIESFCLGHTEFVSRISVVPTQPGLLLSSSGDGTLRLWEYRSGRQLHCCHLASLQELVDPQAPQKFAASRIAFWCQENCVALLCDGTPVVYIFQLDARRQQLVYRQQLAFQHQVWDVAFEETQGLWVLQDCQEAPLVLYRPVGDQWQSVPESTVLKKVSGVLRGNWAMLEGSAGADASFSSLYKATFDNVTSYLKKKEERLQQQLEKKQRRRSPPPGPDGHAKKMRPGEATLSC

Compound: CCc1cnccc1C(=O)Nc1cc2c(cc1F)NC(=O)CC2
Assay: melting temperature shift (DMSO Tm minus MBE1-treated Tm) in cellular thermal proteome profiling; higher = less thermal stabilization by MBE1 (negative = stabilized by MBE1)
Conditions: A375

| Target | melting temperature shift (MBE1 concentration: 100 nM) [°C] | melting temperature shift (MBE1 concentration: 1 uM) [°C] |
| --- | --- | --- |
| UniProt P52815 | -2.4 | -3.82 |
| SNU13 (UniProt P55769) | -1.24 | -1.58 |
| RPL15 (UniProt P61313) | -0.788 | -0.305 |
| UniProt P52895 | -0.904 | 0.0961 |
| RPS26 (UniProt P62854) | 0.0591 | -0.316 |
| CTSC (UniProt P53634) | -0.684 | 1.21 |
| NAA20 (UniProt P61599) | -0.64 | 0.653 |
| ETF1 (UniProt P62495) | -0.266 | 0.299 |
| C21ORF59 (UniProt P57076) | 0 | 0.0256 |
| UFM1 (UniProt P61960) | 0.503 | -0.0672 |
| UniProt P62341 | -0.177 | 1.78 |
| EEF1A1 (UniProt P68104) | -0.0939 | 0.282 |
| COPA (UniProt P53621) | -0.116 | 0.128 |
| GNB1 (UniProt P62873) | -0.788 | -1.31 |
| RPS24 (UniProt P62847) | -0.788 | -0.858 |
| RRP1 (UniProt P56182) | -0.762 | -1.28 |
| UniProt P55290 | -3.46 | -2.94 |
| CD81 (UniProt P60033) | 1.99 | 1.07 |
| RPL10A (UniProt P62906) | -0.543 | -0.165 |
| RAB10 (UniProt P61026) | -1.72 | 0.543 |
| RAB14 (UniProt P61106) | -0.714 | -0.697 |
| STXBP1 (UniProt P61764) | -0.518 | -0.193 |
| FKBP1A (UniProt P62942) | -1.83 | -0.867 |
| RAB2A (UniProt P61019) | -1.29 | -1.36 |
| WDR4 (UniProt P57081) | -1.22 | 1.27 |

Some of the entries so far, bar-delimited.
Target | melting temperature shift (MBE1 concentration: 100 nM) [°C] | melting temperature shift (MBE1 concentration: 1 uM) [°C]
COPA (UniProt P53621) | -0.116 | 0.128
RAB10 (UniProt P61026) | -1.72 | 0.543
